Laboratory results reported in publication PMC4707279.
These are yes or no findings as the source states them, for the method shown. In cells and extracts the contact can be indirect. Some entries that bind do so weakly or less than the wild type.

Amino acid sequences for entries named in this document (tags omitted). Residues count along the entry.
UniProt Q69ZK9, residues 15-836: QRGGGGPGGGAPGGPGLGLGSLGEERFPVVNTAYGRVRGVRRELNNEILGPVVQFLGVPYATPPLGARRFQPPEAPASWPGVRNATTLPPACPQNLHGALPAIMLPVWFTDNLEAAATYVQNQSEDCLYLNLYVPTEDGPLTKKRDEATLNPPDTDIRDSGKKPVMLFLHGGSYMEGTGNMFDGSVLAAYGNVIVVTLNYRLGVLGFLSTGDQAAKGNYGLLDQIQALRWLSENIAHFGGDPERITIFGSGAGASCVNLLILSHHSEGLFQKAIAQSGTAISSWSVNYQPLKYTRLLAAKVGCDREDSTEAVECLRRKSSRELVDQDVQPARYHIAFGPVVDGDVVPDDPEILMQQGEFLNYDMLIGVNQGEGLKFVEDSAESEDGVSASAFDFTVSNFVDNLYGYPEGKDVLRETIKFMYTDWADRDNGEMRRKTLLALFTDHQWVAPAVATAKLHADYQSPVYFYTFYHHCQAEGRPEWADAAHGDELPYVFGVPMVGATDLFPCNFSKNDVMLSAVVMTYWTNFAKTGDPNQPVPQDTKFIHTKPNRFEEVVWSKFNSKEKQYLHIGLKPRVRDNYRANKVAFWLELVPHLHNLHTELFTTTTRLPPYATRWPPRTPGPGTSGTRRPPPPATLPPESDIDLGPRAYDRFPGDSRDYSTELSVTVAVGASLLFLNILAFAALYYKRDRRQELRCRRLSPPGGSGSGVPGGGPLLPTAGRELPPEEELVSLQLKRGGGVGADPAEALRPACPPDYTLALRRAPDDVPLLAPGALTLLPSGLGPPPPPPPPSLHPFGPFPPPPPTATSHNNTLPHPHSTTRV
UniProt O55192: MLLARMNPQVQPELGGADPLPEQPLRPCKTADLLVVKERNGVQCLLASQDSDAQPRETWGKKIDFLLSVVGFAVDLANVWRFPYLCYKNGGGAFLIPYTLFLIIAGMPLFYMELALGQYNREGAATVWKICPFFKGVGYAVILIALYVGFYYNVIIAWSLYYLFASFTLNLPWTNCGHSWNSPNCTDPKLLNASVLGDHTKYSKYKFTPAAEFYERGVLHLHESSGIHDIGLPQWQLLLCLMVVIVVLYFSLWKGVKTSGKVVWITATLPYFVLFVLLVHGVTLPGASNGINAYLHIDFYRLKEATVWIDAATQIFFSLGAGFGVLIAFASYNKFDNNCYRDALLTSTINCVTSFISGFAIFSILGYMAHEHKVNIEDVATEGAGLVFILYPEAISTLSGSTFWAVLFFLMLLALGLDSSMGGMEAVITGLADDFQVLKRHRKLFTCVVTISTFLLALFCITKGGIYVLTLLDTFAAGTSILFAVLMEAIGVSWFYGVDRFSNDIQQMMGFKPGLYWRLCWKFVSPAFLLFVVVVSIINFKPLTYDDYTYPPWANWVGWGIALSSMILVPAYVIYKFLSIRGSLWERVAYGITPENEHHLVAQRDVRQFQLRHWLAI
UniProt Q61327: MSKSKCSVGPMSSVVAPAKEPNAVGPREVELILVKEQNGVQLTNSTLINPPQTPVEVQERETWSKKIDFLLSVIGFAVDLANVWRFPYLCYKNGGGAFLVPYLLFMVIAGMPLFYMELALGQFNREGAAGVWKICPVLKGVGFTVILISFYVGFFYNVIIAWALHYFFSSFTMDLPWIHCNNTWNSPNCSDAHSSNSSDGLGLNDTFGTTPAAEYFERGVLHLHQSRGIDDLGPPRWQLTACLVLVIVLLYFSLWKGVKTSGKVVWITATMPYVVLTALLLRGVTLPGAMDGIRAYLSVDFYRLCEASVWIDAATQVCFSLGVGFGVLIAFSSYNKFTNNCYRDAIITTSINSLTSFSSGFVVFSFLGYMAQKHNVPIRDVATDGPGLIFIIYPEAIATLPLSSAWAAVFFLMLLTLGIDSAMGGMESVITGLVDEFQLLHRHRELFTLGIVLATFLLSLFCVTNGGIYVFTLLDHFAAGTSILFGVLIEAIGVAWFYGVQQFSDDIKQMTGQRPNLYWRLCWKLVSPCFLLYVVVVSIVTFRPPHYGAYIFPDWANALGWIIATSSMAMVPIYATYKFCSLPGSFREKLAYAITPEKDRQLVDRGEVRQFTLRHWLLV

Target: neuroligin 2 (mouse (endogenous in mouse brain)) (UniProt Q69ZK9)
Experiment: co-IP; mouse midbrain extract (50 mM Tris, 150 mM KCl, 1 mM DTT, 1 mM EDTA, 0.5% dodecyl maltoside, pH 7.4); goat anti-NLGN2 on protein G Dynabeads, 4°C overnight; NLGN2 null mice as negative control; Western blot

Molecule | binding
norepinephrine transporter (from UniProt O55192 1-617) | no binding
dopamine transporter (from UniProt Q61327 1-619) | no binding
collybistin (protein, UniProt Q3UTH8 1-516) MYDLITGDSIVSAEAVWDHVTMANRELAFKAGDVIKVLDASNKDWWWGQIDDEEGWFPASFVRLWVNQEDGVEEGPSDVQNGHLDPNSDCLCLGRPLQNRDQMRANVINEIMSTERHYIKHLKDICEGYLKQCRKRRDMFSDEQLKVIFGNIEDIYRFQMGFVRDLEKQYNNDDPHLSEIGPCFLEHQDGFWIYSEYCNNHLDACMELSKLMKDSRYQHFFEACRLLQQMIDIAIDGFLLTPVQKICKYPLQLAELLKYTAQDHSDYRYVAAALAVMRNVTQQINERKRRLENIDKIAQWQASVLDWEGEDILDRSSELIYTGEMAWIYQPYGRNQQRVFFLFDHQMVLCKKDLIRRDILYYKGRIDMDKYEVIDIEDGRDDDFNVSMKNAFKLHNKETEEVHLFFAKKLEEKIRWLRAFREERKMVQEDEKIGFEISENQKRQAAMTVRKASKQKGVNSARSVPPSYPPPQDPLNQGQYLVPDGIAQSQVFEFTEPKRSQSPFWQNFSRLTPFKK | binds
